Assay results reported in the supplement of paper PMC10849652.
The other results are listed elsewhere or left out.

Amino acid sequences for entries named in this document (tags omitted). A change or cut given only in a name is not applied to a line headed by its entry.
UniProt P23142: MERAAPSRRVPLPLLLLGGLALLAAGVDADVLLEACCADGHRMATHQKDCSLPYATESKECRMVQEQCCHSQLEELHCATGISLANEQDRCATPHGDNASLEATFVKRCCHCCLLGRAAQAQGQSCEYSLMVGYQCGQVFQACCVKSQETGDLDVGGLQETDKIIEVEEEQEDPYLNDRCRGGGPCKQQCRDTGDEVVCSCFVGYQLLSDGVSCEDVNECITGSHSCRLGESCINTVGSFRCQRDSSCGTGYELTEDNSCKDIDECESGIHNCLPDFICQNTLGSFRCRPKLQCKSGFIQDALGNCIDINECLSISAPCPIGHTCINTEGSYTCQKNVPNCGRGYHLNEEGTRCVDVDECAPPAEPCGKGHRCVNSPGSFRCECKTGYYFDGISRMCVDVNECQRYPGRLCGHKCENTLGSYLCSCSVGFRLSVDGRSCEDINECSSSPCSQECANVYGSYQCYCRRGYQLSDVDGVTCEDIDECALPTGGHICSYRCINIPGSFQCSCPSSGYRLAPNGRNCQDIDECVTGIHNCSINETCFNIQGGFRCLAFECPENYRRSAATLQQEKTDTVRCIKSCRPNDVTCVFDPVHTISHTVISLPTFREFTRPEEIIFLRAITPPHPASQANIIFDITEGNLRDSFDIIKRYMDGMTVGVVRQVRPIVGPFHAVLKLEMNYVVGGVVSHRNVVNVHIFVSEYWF
UniProt Q9Y285: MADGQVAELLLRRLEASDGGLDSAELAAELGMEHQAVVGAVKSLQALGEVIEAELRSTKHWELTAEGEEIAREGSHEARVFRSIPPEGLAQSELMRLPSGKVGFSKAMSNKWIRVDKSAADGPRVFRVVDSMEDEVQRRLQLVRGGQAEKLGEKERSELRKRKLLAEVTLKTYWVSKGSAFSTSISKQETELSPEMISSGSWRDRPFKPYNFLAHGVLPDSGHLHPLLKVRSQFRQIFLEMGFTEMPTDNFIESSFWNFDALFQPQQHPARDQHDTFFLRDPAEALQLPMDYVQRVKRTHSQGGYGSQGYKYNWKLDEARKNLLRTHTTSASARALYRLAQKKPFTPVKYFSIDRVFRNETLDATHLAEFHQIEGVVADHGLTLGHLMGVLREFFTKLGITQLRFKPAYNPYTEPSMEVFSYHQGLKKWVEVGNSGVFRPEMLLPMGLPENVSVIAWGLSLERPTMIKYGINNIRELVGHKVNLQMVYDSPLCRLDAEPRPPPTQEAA
UniProt Q9NVI1: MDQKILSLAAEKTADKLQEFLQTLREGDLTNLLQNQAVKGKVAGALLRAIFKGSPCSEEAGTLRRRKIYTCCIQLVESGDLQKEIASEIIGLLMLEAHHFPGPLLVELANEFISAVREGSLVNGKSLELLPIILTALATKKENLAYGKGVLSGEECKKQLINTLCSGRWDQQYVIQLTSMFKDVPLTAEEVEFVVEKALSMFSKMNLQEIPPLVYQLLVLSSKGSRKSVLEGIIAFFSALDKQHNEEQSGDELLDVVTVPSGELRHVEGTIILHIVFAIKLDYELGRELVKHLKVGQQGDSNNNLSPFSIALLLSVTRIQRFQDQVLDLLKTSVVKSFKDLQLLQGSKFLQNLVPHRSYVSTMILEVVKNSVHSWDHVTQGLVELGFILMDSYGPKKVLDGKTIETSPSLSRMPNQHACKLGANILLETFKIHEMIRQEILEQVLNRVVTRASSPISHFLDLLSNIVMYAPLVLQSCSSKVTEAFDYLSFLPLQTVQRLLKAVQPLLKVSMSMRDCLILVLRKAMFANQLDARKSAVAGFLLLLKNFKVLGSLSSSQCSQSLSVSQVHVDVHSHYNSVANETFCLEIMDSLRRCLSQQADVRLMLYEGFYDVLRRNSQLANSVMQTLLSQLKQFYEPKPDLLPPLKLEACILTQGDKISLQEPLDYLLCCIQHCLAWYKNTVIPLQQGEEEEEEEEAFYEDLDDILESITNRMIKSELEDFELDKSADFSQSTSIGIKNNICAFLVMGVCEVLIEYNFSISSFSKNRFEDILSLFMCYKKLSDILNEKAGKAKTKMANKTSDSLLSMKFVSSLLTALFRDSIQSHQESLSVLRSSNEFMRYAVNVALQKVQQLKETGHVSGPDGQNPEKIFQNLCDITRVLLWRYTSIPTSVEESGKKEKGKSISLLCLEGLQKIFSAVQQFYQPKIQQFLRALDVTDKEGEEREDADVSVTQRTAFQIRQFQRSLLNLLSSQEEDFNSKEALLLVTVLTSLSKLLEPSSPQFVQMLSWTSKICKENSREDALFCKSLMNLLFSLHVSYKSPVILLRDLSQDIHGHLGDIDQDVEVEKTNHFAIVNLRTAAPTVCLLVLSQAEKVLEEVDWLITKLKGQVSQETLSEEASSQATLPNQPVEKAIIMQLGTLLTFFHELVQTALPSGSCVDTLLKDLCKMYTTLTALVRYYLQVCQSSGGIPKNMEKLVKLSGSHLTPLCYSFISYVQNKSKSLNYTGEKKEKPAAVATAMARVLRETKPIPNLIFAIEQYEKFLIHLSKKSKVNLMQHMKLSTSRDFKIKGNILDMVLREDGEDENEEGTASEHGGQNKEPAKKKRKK
UniProt Q9Y3D6: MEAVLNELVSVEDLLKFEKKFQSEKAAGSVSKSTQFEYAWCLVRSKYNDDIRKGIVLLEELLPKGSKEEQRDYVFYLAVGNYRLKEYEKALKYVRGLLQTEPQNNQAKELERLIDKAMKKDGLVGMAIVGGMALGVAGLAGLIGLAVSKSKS
UniProt Q92913: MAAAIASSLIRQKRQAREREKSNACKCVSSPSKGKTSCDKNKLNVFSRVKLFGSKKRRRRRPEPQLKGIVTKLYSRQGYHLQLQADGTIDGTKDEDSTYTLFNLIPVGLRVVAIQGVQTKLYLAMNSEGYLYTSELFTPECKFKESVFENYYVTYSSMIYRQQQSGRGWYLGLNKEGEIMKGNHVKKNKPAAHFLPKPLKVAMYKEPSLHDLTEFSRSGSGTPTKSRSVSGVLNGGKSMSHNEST
UniProt Q14254: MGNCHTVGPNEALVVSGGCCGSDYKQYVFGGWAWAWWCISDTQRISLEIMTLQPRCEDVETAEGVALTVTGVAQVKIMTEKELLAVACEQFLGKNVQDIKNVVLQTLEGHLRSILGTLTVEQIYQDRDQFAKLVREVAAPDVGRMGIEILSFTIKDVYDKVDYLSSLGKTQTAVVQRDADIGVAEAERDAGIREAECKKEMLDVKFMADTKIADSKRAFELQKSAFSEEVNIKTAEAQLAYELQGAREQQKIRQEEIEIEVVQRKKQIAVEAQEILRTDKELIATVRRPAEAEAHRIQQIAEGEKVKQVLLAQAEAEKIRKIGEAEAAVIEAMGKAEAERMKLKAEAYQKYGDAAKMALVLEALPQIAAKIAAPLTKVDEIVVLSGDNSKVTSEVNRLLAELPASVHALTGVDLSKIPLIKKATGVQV
UniProt P22570: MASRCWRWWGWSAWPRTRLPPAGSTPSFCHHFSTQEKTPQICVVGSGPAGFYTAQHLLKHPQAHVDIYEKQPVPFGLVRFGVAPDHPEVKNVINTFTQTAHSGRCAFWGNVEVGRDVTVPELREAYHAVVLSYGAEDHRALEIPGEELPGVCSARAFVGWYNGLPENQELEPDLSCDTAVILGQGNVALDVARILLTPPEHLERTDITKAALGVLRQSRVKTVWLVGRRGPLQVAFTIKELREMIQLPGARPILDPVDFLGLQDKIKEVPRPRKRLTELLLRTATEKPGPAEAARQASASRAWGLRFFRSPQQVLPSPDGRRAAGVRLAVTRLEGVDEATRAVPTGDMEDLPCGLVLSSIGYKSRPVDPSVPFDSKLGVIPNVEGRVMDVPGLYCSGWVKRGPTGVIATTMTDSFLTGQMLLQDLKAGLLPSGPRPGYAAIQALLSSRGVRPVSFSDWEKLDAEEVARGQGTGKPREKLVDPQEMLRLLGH
UniProt Q9H0X4: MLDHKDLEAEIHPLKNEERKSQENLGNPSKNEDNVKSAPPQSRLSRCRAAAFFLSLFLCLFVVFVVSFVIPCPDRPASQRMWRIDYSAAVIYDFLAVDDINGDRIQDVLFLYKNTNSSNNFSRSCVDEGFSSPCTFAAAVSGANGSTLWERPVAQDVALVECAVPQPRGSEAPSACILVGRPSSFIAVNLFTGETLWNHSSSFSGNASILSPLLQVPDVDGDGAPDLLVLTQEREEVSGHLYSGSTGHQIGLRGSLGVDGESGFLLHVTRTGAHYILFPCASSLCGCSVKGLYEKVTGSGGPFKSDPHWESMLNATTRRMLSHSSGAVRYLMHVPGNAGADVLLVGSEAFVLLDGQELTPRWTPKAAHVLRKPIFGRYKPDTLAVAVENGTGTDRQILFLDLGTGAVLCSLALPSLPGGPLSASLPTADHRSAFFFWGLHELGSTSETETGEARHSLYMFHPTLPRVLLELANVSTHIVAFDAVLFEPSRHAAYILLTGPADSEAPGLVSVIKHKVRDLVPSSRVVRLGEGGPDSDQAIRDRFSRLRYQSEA
UniProt Q14192: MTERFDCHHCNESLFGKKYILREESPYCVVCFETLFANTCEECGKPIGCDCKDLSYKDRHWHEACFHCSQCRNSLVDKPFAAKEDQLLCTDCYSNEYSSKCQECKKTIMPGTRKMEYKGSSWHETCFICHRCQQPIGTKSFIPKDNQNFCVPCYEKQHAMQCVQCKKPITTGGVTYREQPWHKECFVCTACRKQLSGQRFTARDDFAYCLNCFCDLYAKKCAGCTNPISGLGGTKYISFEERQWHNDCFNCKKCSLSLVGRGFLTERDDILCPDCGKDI
UniProt Q5XUX1: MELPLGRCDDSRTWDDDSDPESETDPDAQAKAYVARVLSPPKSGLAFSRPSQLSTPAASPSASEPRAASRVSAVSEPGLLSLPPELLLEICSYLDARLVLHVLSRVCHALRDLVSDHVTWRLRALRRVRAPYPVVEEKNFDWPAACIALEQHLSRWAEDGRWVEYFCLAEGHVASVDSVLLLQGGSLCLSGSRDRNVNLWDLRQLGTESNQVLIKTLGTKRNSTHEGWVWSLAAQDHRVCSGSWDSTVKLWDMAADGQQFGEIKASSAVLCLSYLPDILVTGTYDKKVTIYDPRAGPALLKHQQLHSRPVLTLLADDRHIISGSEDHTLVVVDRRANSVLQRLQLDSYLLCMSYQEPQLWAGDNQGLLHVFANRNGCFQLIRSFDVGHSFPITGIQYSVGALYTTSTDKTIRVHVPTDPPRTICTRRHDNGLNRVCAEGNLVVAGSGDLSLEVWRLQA
UniProt Q92520: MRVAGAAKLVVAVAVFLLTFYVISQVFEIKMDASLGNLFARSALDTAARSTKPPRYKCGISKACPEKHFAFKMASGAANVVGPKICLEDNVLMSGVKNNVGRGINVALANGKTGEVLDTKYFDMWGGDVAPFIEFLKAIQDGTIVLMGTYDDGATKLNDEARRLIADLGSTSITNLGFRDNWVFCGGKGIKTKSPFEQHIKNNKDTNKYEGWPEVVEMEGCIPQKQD
UniProt Q9Y613: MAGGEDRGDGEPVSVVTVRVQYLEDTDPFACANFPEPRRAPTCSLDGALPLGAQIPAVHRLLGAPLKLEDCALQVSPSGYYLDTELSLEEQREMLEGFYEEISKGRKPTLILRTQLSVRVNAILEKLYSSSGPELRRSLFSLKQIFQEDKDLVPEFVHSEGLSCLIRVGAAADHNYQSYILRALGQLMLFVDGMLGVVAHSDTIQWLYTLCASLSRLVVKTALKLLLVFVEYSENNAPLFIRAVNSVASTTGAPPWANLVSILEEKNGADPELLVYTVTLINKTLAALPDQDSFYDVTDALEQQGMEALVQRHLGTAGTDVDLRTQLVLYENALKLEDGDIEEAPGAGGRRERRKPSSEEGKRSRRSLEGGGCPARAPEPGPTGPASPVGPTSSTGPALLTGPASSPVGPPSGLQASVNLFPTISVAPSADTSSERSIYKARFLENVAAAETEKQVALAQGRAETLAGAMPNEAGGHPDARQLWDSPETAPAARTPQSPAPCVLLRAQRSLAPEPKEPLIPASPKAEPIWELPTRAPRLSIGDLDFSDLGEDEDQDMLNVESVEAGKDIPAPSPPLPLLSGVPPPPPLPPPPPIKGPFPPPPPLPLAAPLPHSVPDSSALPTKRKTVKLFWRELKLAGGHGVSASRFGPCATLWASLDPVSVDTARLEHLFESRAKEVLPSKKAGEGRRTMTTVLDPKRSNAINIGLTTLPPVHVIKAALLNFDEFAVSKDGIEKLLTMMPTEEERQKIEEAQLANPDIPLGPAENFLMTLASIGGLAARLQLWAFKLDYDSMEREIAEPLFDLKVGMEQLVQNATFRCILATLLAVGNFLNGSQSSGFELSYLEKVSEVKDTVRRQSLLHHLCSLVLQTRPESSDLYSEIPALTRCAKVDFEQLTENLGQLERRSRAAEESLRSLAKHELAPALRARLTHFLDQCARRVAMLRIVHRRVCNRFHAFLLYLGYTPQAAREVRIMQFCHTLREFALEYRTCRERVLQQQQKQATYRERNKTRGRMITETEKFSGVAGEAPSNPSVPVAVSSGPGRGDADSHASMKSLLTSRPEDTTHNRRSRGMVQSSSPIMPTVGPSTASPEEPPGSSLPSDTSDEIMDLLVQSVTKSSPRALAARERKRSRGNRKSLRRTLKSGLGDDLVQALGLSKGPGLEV

Tests used:
Assay in all cases: log2 fold change, soluble protein after heating vs DMSO (PISA); higher = thermal stabilisation; K562 cells, 10 uM, 30 min; active = over 0.2 and 3.5 SD of the protein, either way, in both replicates (recomputed)
[1] = compound: CC1=C(C=C(C=C1)NC(=O)C2=CC(=CC=C2)C(C)(C)C#N)NC3=CC4=C(C=C3)N=CN(C4=O)C
How it was run: (§1)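 K562 cells (2×10^6 cells/mL) were treated with 10 μM compound for 30 min, and aliquots were heated for 3 min over 48°C-58°C. Pooled aliquots were extracted in PBS with 0.5% NP-40 at 4°C, and the supernatant after 21,000xg for 90 min was measured by TMTpro 16plex LC-MS/MS with channel sums equalised. Reported thermal stability, relative to control samples and from duplicates, is a log2 fold change.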

[2] = compound: CC1=C(C=C(C=C1)NC(=O)C2=CC(=CC=C2)N(C)C)NC(=O)C3=CC=C(C=C3)O
How it was run: as §1

[3] = compound: CC1=CC=C(C=C1)SC2=C3C=C(SC3=CN=C2)C(=O)N
How it was run: as §1

[4] = compound: CC1=NC(=CC=C1)C2=C(N=C(N2)C(C)(C)C)C3=CC4=NC=CN=C4C=C3
How it was run: as §1

[5] = compound: CCCCN(Cc1ccc(C(=O)NO)cc1)C(=O)Nc1ccccc1 [Nexturastat A]
How it was run: as §1

[6] = compound: CCCS(=O)(=O)Nc1ccc(F)c(C(=O)c2c[nH]c3ncc(-c4ccc(Cl)cc4)cc23)c1F [vemurafenib]
How it was run: as §1

[7] = compound: CCCS(=O)(=O)Nc1ccc(F)c(C(=O)c2c[nH]c3ncc(Cl)cc23)c1F
How it was run: as §1

[8] = compound: CCCc1cc(C)[nH]c(=O)c1CNC(=O)c1cc(-c2ccnc(N3CCN(C)CC3)c2)cc2c1cnn2C(C)C
How it was run: as §1

[9] = compound: CCN(CC)Cc1ccc2cc(COC(=O)Nc3ccc(C(=O)NO)cc3)ccc2c1 [givinostat]
How it was run: as §1

[10] = compound: CCN(CCCOc1ccc2c(Nc3cc(CC(=O)Nc4cccc(F)c4)[nH]n3)ncnc2c1)CCOP(=O)(O)O [barasertib]
How it was run: as §1

[11] = compound: CC[C@@H]1C(=O)N(C)c2cnc(Nc3ccc(C(=O)NC4CCN(C)CC4)cc3OC)nc2N1C1CCCC1
How it was run: as §1

[12] = compound: CC[C@@H]1C(=O)N(C)c2cnc(Nc3ccc(C(=O)N[C@H]4CC[C@H](N5CCN(CC6CC6)CC5)CC4)cc3OC)nc2N1C(C)C [volasertib]
How it was run: as §1

[13] = compound: CC[C@H](C)N1C=C(C2=C(C=C(C=C21)C3=CN=C(C=C3)N4CCNCC4)C(=O)NCC5=C(C=C(NC5=O)C)C)C
How it was run: as §1

[14] = compound: CC[C@H](C)[C@@H](C(=O)N[C@@H]([C@@H](C)O)C(=O)N[C@@H](CC(C)C)C(=O)[C@]1(CO1)C)NC(=O)[C@H]([C@@H](C)CC)N(C)C(=O)C [epoxomicin]
How it was run: as §1

[15] = compound: CCn1c(C(=O)N(C2CC2)C2CC2)cc2c3c(ncn3C)c(Nc3cc(C)n(C)n3)nc21
How it was run: as §1

[16] = compound: CCn1cc(-c2ccnc3[nH]c(-c4cccc(CN(C)C)c4)cc23)c(-c2ccc(NC(=O)N(C)C)cc2)n1
How it was run: as §1

[17] = compound: CN(C)CC(=O)Nc1ccc2[nH]c(=O)c3ccccc3c2c1
How it was run: as §1

[18] = compound: CN(CCOC1=CC=C(C=C1)C[C@H]2C(=O)NC(=O)S2)C3=CC=CC=N3 (racemic) [rosiglitazone]
How it was run: as §1

[19] = compound: CN1C2=C(C3=C1C(=O)N(N=C3)CC4=CC(=CC=C4)N)SC(=C2)S(=O)C
How it was run: as §1

[20] = compound: CN1CCC(CNc2ccc3ncc(-c4cccc(OC(F)(F)F)c4)n3n2)CC1
How it was run: as §1

Row | Target | log2 fold change [1] | log2 fold change [2] | log2 fold change [3] | log2 fold change [4] | log2 fold change [5] | log2 fold change [6] | log2 fold change [7] | log2 fold change [8] | log2 fold change [9] | log2 fold change [10] | log2 fold change [11] | log2 fold change [12] | log2 fold change [13] | log2 fold change [14] | log2 fold change [15] | log2 fold change [16] | log2 fold change [17] | log2 fold change [18] | log2 fold change [19] | log2 fold change [20]
1 | FBLN1 (UniProt P23142) | inactive: -0.092 | inactive: 0.314 | inactive: 0.111 | inactive: 0.188 | inactive: 0.183 | inactive: 0.093 | inactive: -0.167 | inactive: -0.232 | inactive: -0.014 | inactive: -0.143 | inactive: -0.022 | inactive: 0.059 | inactive: -0.112 | inactive: -0.223 | inactive: 0.094 | inactive: 0.055 | inactive: -0.119 | inactive: -0.003 | inactive: 0.339 | inactive: 0.066
2 | FARSA (UniProt Q9Y285) | inactive: 0.012 | inactive: -0.028 | inactive: -0.017 | inactive: -0.011 | inactive: 0.029 | inactive: 0.037 | inactive: 0.098 | inactive: -0.003 | inactive: 0.046 | inactive: 0.021 | inactive: -0.005 | inactive: -0.111 | inactive: 0.064 | inactive: -0.024 | inactive: -0.004 | inactive: -0.054 | inactive: 0.042 | inactive: 0.04 | inactive: 0.005 | inactive: 0.023
3 | FANCI (UniProt Q9NVI1) | inactive: 0.012 | inactive: 0.018 | inactive: 0.01 | inactive: 0.046 | inactive: -0.054 | inactive: 0.016 | inactive: 0.087 | inactive: 0.009 | inactive: 0.043 | inactive: 0.029 | active: -0.277 | inactive: -0.159 | inactive: 0.127 | inactive: -0.077 | – | inactive: -0.093 | inactive: 0.072 | – | inactive: -0.013 | inactive: -0.188
4 | FIS1 (UniProt Q9Y3D6) | inactive: -0.024 | inactive: 0.006 | inactive: 0 | inactive: 0 | inactive: -0.018 | inactive: 0.048 | inactive: -0.046 | inactive: -0.009 | inactive: -0.014 | inactive: -0.027 | inactive: 0.005 | inactive: 0.046 | inactive: -0.023 | inactive: -0.002 | – | inactive: 0.008 | inactive: 0.01 | – | inactive: -0.189 | inactive: -0.075
5 | FGF13 isoform 3 (UniProt Q92913) | inactive: -0.029 | inactive: 0.086 | inactive: -0.048 | inactive: 0.025 | inactive: 0.047 | inactive: 0.058 | inactive: -0.004 | inactive: -0.112 | inactive: 0.032 | inactive: 0.027 | inactive: 0.02 | inactive: -0.051 | inactive: -0.019 | inactive: 0.04 | inactive: 0.029 | inactive: 0.047 | inactive: 0.014 | inactive: 0.007 | inactive: 0.012 | inactive: 0.071
6 | FLNB isoform 8 (UniProt O75369) | inactive: 0.012 | inactive: -0.018 | inactive: -0.002 | inactive: 0.003 | inactive: -0.012 | inactive: 0.028 | inactive: 0.03 | inactive: -0.014 | inactive: 0.014 | inactive: 0.014 | inactive: -0.047 | inactive: -0.09 | inactive: 0.021 | inactive: 0.043 | inactive: -0.028 | inactive: -0.006 | inactive: 0.013 | inactive: 0.023 | inactive: -0.043 | inactive: -0.018
7 | FLOT2 (UniProt Q14254) | inactive: -0.031 | inactive: -0.12 | inactive: -0.047 | inactive: -0.08 | inactive: 0.324 | inactive: 0.02 | inactive: -0.057 | inactive: 0.159 | inactive: 0.059 | inactive: 0.047 | inactive: 0.111 | inactive: 0.175 | inactive: -0.025 | inactive: 0.091 | inactive: -0.018 | inactive: 0.144 | inactive: 0.079 | inactive: -0.07 | inactive: 0.248 | inactive: 0.404
8 | FDXR isoform 7 (UniProt P22570) | inactive: -0.011 | inactive: -0.078 | inactive: -0.039 | inactive: 0.072 | inactive: -0.07 | inactive: 0.02 | inactive: 0.024 | inactive: 0.059 | inactive: -0.021 | inactive: 0.035 | inactive: 0.052 | inactive: 0.003 | inactive: 0.025 | inactive: 0.059 | – | inactive: -0.144 | inactive: 0.012 | – | inactive: -0.097 | active: -0.387
9 | FAM234A (UniProt Q9H0X4) | inactive: 0.03 | inactive: 0.055 | inactive: -0.03 | inactive: 0.01 | inactive: -0.022 | inactive: -0.028 | inactive: -0.034 | inactive: 0.149 | inactive: 0.008 | inactive: -0.014 | inactive: -0.037 | inactive: 0.041 | inactive: -0.02 | inactive: 0.031 | inactive: -0.013 | – | inactive: -0.042 | inactive: 0.002 | inactive: -0.123 | –
10 | FN1 isoform 1 (UniProt P02751) | inactive: -0.026 | inactive: 0.057 | inactive: 0.052 | inactive: 0.157 | inactive: 0.021 | inactive: 0.064 | inactive: -0.042 | inactive: -0.173 | inactive: -0.065 | inactive: 0.038 | inactive: -0.02 | inactive: 0.009 | inactive: -0.007 | inactive: -0.198 | inactive: -0.044 | inactive: -0.011 | inactive: -0.062 | inactive: 0.055 | inactive: 0.18 | inactive: -0.1
11 | FHL2 (UniProt Q14192) | inactive: -0.011 | inactive: -0.005 | inactive: -0.027 | inactive: -0.019 | inactive: 0.052 | inactive: -0.063 | inactive: -0.034 | inactive: -0.015 | inactive: -0.018 | inactive: -0.008 | inactive: 0.016 | inactive: -0.029 | inactive: -0.002 | inactive: 0.006 | inactive: -0.013 | inactive: -0.008 | inactive: -0.055 | inactive: 0.001 | inactive: -0.054 | inactive: 0.012
12 | FBXW9 (UniProt Q5XUX1) | inactive: -0.053 | inactive: 0.036 | inactive: 0.098 | inactive: -0.032 | inactive: 0.058 | inactive: -0.087 | inactive: 0.037 | inactive: -0.043 | inactive: -0.024 | inactive: 0.057 | inactive: -0.049 | inactive: -0.119 | inactive: -0.043 | inactive: -0.012 | inactive: 0.019 | – | inactive: 0.034 | inactive: 0.022 | inactive: 0.014 | –
13 | FAM3C (UniProt Q92520) | inactive: 0.035 | inactive: 0.009 | inactive: 0.025 | inactive: 0.007 | inactive: -0.052 | inactive: 0 | inactive: 0.03 | inactive: -0.007 | inactive: -0.011 | inactive: 0.034 | inactive: -0.098 | inactive: -0.206 | inactive: -0.013 | inactive: -0.065 | inactive: 0.019 | inactive: -0.057 | inactive: -0.01 | inactive: 0 | inactive: -0.047 | inactive: 0.096
14 | FHOD1 (UniProt Q9Y613) | inactive: -0.288 | inactive: 0.073 | inactive: -0.063 | inactive: -0.09 | inactive: 0.365 | inactive: -0.002 | inactive: -0.134 | inactive: 0.132 | inactive: 0.024 | inactive: 0.044 | inactive: 0.127 | inactive: -0.055 | inactive: 0.075 | inactive: -0.171 | – | inactive: 0.093 | inactive: -0.048 | – | inactive: 0.372 | inactive: -0.022
15 | FCHO2 (UniProt Q0JRZ9) | inactive: -0.01 | inactive: -0.067 | inactive: 0.048 | inactive: 0.058 | inactive: 0.035 | inactive: 0.057 | inactive: 0.064 | inactive: 0.014 | inactive: 0.084 | inactive: -0.004 | inactive: 0 | inactive: -0.05 | inactive: 0.172 | inactive: 0.216 | inactive: -0.027 | inactive: -0.134 | inactive: 0.01 | inactive: 0.006 | inactive: -0.028 | inactive: -0.024
16 | FLNC (UniProt Q14315) | inactive: 0.016 | inactive: -0.028 | inactive: -0.004 | inactive: -0.001 | inactive: -0.035 | inactive: 0.008 | inactive: 0.02 | inactive: -0.011 | inactive: 0.002 | inactive: 0.012 | inactive: -0.022 | inactive: -0.063 | inactive: 0.017 | inactive: -0.011 | inactive: -0.01 | inactive: -0.023 | inactive: -0.002 | inactive: 0.025 | inactive: -0.037 | inactive: -0.005

Given in markdown: part of the list above.

| Row | Target | log2 fold change [1] | log2 fold change [2] | log2 fold change [3] | log2 fold change [4] | log2 fold change [5] | log2 fold change [6] | log2 fold change [7] | log2 fold change [8] | log2 fold change [9] | log2 fold change [10] | log2 fold change [11] | log2 fold change [12] | log2 fold change [13] | log2 fold change [14] | log2 fold change [15] | log2 fold change [16] | log2 fold change [17] | log2 fold change [18] | log2 fold change [19] | log2 fold change [20] |
| --- | --- | --- | --- | --- | --- | --- | --- | --- | --- | --- | --- | --- | --- | --- | --- | --- | --- | --- | --- | --- | --- |
| 6 | FLNB isoform 8 (UniProt O75369) | inactive: 0.012 | inactive: -0.018 | inactive: -0.002 | inactive: 0.003 | inactive: -0.012 | inactive: 0.028 | inactive: 0.03 | inactive: -0.014 | inactive: 0.014 | inactive: 0.014 | inactive: -0.047 | inactive: -0.09 | inactive: 0.021 | inactive: 0.043 | inactive: -0.028 | inactive: -0.006 | inactive: 0.013 | inactive: 0.023 | inactive: -0.043 | inactive: -0.018 |
| 16 | FLNC (UniProt Q14315) | inactive: 0.016 | inactive: -0.028 | inactive: -0.004 | inactive: -0.001 | inactive: -0.035 | inactive: 0.008 | inactive: 0.02 | inactive: -0.011 | inactive: 0.002 | inactive: 0.012 | inactive: -0.022 | inactive: -0.063 | inactive: 0.017 | inactive: -0.011 | inactive: -0.01 | inactive: -0.023 | inactive: -0.002 | inactive: 0.025 | inactive: -0.037 | inactive: -0.005 |
